Values quoted from earlier work as cited in patent US6825040B2, “Method of using a vapor acid test kit” (Mainstream Engineering Corporation, priority 1995, dated 2004).
For at least one compound, name, drawing or mass did not settle the structure.

Settings: pH range of the indicator colour change

## O=S1(=O)OC(c2ccc(O)cc2)(c2ccc(O)cc2)c2ccccc21 [Phenol red, Phenolsulfonephthalein]
  pH Range: 6.4 to 8.0
